PubChem BioAssay AID1259405 | NCATS, 2018

- Screen: 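Mouse-designed siRNAs used to find CHO productivity engineering targets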 (primary screen)
- System: Chinese hamster CHO-K1 ovary cells with stable secreted eGFP expression
- Knock-down reagent: single siRNA against mouse genes, 0.8 pmol siRNA per well (2 µl of 400 nM stock)
- Duration: 3 days
- Detection: 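Per-well intracellular GFP measured by laser scanning cytometry, plus viability from ATP luminescence, each relative to plate median of non-targeting control wells, in %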
- Direction: GFP, % of control: higher = more GFP per well, higher productivity; viability (ATP), % of control: higher = more viable cells (more ATP)
- Hit rule: 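a knock-down is called active if GFP reaches 120% or more of non-targeting control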
Shown is one part, drawn at random, of about 50,000 reagents. Over the whole deposit, about 4,000 (8%) are marked active. 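Mouse siRNA library applied to hamster cells; one well for each siRNA.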 The numbers tell different reagents against one gene apart.

target | siRNA no. | GFP, % of control | viability (ATP), % of control | Call
Fbxo22 (F-box protein 22) | 1 | 57.3 | 83.8 | inactive
Fbxo22 (F-box protein 22) | 2 | 84.1 | 80.6 | inactive
Fbxo22 (F-box protein 22) | 3 | 97.4 | 85.2 | inactive
Ube2d2a (ubiquitin-conjugating enzyme E2D 2A) | 1 | 79.9 | 70.9 | inactive
Ube2d2a (ubiquitin-conjugating enzyme E2D 2A) | 2 | 96 | 79.4 | inactive
Ube2d2a (ubiquitin-conjugating enzyme E2D 2A) | 3 | 81.6 | 106 | inactive
Ptgdr (prostaglandin D receptor) | 1 | 117 | 94.8 | inactive
Ptgdr (prostaglandin D receptor) | 2 | 50.6 | 71.7 | inactive
Ptgdr (prostaglandin D receptor) | 3 | 94.6 | 80.3 | inactive
Pigz (phosphatidylinositol glycan anchor biosynthesis, class Z) | 1 | 103 | 81.8 | inactive
Pigz (phosphatidylinositol glycan anchor biosynthesis, class Z) | 2 | 57.6 | 52.5 | inactive
Pigz (phosphatidylinositol glycan anchor biosynthesis, class Z) | 3 | 118 | 101 | inactive
Klhl30 (kelch-like 30) | 1 | 78.1 | 53.9 | inactive
Klhl30 (kelch-like 30) | 2 | 38.8 | 49.8 | inactive
Klhl30 (kelch-like 30) | 3 | 82.7 | 101 | inactive
Exd2 (exonuclease 3'-5' domain containing 2) | 1 | 93.5 | 96.7 | inactive
Exd2 (exonuclease 3'-5' domain containing 2) | 2 | 137 | 86.8 | active
Exd2 (exonuclease 3'-5' domain containing 2) | 3 | 75.2 | 79.6 | inactive
Nelfa (negative elongation factor complex member A, Whsc2) | 1 | 85 | 78.9 | inactive
Nelfa (negative elongation factor complex member A, Whsc2) | 2 | 89.3 | 87.7 | inactive
Nelfa (negative elongation factor complex member A, Whsc2) | 3 | 51.3 | 84.7 | inactive
Psmc5 (protease (prosome, macropain) 26S subunit, ATPase 5) | 1 | 46.2 | 29.3 | inactive
Psmc5 (protease (prosome, macropain) 26S subunit, ATPase 5) | 2 | 60.8 | 54.4 | inactive
Psmc5 (protease (prosome, macropain) 26S subunit, ATPase 5) | 3 | 111 | 93.1 | inactive
Ckap5 (cytoskeleton associated protein 5) | 1 | 47.1 | 61.8 | inactive
Ckap5 (cytoskeleton associated protein 5) | 2 | 67.2 | 75.1 | inactive
Ckap5 (cytoskeleton associated protein 5) | 3 | 80.2 | 75.9 | inactive
Tbx21 (T-box 21) | 1 | 106 | 114 | inactive
Tbx21 (T-box 21) | 2 | 91.9 | 75 | inactive
Tbx21 (T-box 21) | 3 | 82 | 96.9 | inactive
Natd1 (N-acetyltransferase domain containing 1) | 1 | 101 | 73.2 | inactive
Natd1 (N-acetyltransferase domain containing 1) | 2 | 98.9 | 85.6 | inactive
Natd1 (N-acetyltransferase domain containing 1) | 3 | 150 | 81.7 | active
Ccl7 (C-C motif chemokine ligand 7) | 1 | 63.4 | 87.2 | inactive
Ccl7 (C-C motif chemokine ligand 7) | 2 | 42.5 | 59.2 | inactive
Uckl1 (uridine-cytidine kinase 1-like 1) | 1 | 68.4 | 59.2 | inactive
Uckl1 (uridine-cytidine kinase 1-like 1) | 2 | 104 | 73.3 | inactive
Uckl1 (uridine-cytidine kinase 1-like 1) | 3 | 69.1 | 62.9 | inactive
Nat8 (N-acetyltransferase 8 (GCN5-related)) | 1 | 80.7 | 88.9 | inactive
Nat8 (N-acetyltransferase 8 (GCN5-related)) | 2 | 104 | 53.2 | inactive
Zcchc10 (zinc finger, CCHC domain containing 10) | 1 | 31.7 | 32 | inactive
Zcchc10 (zinc finger, CCHC domain containing 10) | 2 | 79 | 42.4 | inactive
Zcchc10 (zinc finger, CCHC domain containing 10) | 3 | 71.1 | 100 | inactive
Slc4a10 | 1 | 137 | 108 | active
Slc4a10 | 2 | 49.5 | 60.1 | inactive
Slc4a10 | 3 | 64.8 | 68.5 | inactive
R3hdm4 (R3H domain containing 4) | 1 | 52.9 | 62 | inactive
R3hdm4 (R3H domain containing 4) | 2 | 56.6 | 80 | inactive
R3hdm4 (R3H domain containing 4) | 3 | 140 | 96 | active
Gemin4 (gem nuclear organelle associated protein 4) | 1 | 61.4 | 70.9 | inactive
Gemin4 (gem nuclear organelle associated protein 4) | 2 | 26.6 | 25.5 | inactive
Gemin4 (gem nuclear organelle associated protein 4) | 3 | 71.5 | 95 | inactive
Sp2 (Sp2 transcription factor) | 1 | 112 | 95.5 | inactive
Sp2 (Sp2 transcription factor) | 2 | 45.6 | 72.5 | inactive
Sctr (secretin receptor) | 1 | 84 | 40 | inactive
Sctr (secretin receptor) | 2 | 100 | 99.2 | inactive
Sctr (secretin receptor) | 3 | 61.5 | 64.8 | inactive
